Tags and fusion partners may be left off the protein sequences shown. For some assays here: The exact form of at least one protein or probe is not confirmed.
Key:
[1] = system: T1, XPD Mbu helicase (Rad3-related DNA helicase) (Methanococcoides burtonii); assay: activity assay; conditions: fluorescence strand displacement (unwinding); 100 mM Hepes pH 8.0, 1 mM ATP, 10 mM MgCl2, 100 mM to 1 M KCl; active at 1 M KCl; purified recombinant protein; protein details: ONLP3696
T1 sequence (limits assumed): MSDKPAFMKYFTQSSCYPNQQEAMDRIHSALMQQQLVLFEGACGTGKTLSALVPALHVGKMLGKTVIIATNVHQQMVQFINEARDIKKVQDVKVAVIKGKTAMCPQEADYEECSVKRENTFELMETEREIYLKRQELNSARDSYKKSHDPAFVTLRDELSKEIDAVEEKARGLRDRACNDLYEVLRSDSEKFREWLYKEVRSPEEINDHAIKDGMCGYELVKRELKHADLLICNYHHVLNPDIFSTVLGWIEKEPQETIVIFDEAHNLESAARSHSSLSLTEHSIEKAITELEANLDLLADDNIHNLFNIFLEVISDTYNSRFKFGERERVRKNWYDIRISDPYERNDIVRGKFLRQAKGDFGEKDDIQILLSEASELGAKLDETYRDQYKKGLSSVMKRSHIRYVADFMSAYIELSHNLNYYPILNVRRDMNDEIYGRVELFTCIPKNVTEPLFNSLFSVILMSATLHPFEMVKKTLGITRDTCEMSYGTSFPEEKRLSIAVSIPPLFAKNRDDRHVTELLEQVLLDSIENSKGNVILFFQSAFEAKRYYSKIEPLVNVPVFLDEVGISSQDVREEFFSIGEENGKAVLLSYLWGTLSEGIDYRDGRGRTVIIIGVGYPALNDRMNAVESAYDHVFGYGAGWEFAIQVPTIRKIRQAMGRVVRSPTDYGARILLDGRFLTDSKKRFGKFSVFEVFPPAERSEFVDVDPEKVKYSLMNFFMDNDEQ

[2] = system: T1, XPD Mbu helicase (Rad3-related DNA helicase) (Methanococcoides burtonii); assay: binding assay; conditions: 3' cholesterol on primer SEQ 64; iSp18 spacer; four 2'-OMe-U at 5' end; nanopore (MspA) helicase-controlled DNA movement, 5'-3'; 400 mM NaCl, 10 mM Hepes pH 8.0, 1 mM ATP, 1 mM MgCl2, 1 mM DTT, +140 mV; purified recombinant protein; protein details: ONLP3696

Sequence	activity on this sequence [1]	binding result [2]
CCCCCCCCACCCCCCCCCACCCCCCCCCACCCCCCCCCCCTATTCTGTTTATGTTTCTTGTTTGTTAGCCCTATTCTGT / ACAGAATAGGGCTAACAAACAAGAAACATAAACAGAATAG [fluorescent helicase substrate]	active	
TTTTTTTTTTTTTTTTTTTTTTTTTTTTTTTTTTTTTTTTTTTTTTTTTTTTTTGGTTGTTTCTGTTGGTGCTGATATTGCTTTTGATGCCGACCCTAAATTTTTTGCCTGTTTGGTTCGCTTTGAGTCTTCTTCGGTTCCGACTACCCTCCCGACTGCCTATGATGTTTATCCTTTGAATGGTCGCCATGATGGTGGTTATTATACCGTCAAGGACTGTGTGACTATTGACGTCCTTCCCCGTACGCCGGGCAATAACGTTTATGTTGGTTTCATGGTTTGGTCTAACTTTACCGCTACTAAATGCCGCGGATTGGTTTCGCTGAATCAGGTTATTAAAGAGATTATTTGTCTCCAGCCACTTAAGTGAGGTGATTTATGTTTGGTGCTATTGCTGGCGGTATTGCTTCTGCTCTTGCTGGTGGCGCCATGTCTAAATTGTTTGGAGGCGGTC / TGACCGCCTCCAAACAATTTAGACATGG / AGCGACTAACAAACACAATCTGATGGCTTTTTTTTTTTTTTTTTTTTTTTTTTTTTT [400mer PhiX174 ssDNA with 50T 5' leader and annealed primers]		binds
